Data: patent US10206400B2, “Insecticidal compounds based on isoxazoline derivatives” (Syngenta Crop Protection LLC, priority 2009, dated 2019)
Some results were stated once for a whole list of compounds, not compound by compound.

What was measured:
Type in all cases: in vivo
Spodoptera littoralis = Spodoptera littoralis (Egyptian cotton leafworm) leaf disc spray test; settings: 200 ppm spray on cotton leaf discs, L1 larvae, mortality, feeding behavior, growth regulation 3 days after treatment
Excerpt: Cotton leaf discs were placed on agar in a 24-well microtiter plate and sprayed with test solutions at an application rate of 200 ppm. After drying, the leaf discs were infested with 5 L1 larvae. The samples were checked for mortality, feeding behavior, and growth regulation 3 days after treatment (DAT).

Heliothis virescens = Heliothis virescens (tobacco budworm) egg/artificial diet test; settings: 200 ppm (concentration in well 18 ppm), eggs 0-24 h old on artificial diet, 4 days; egg mortality, larval mortality, growth regulation
Experimental: Eggs (0-24 h old) were placed in 24-well microtiter plate on artificial diet and treated with test solutions at an application rate of 200 ppm (concentration in well 18 ppm) by pipetting. After an incubation period of 4 days, samples were checked for egg mortality, larval mortality, and growth regulation.

Myzus persicae = Myzus persicae (green peach aphid), systemic test; settings: 12.5 ppm, roots of infested pea seedlings in test solution, 6 days; mortality, special effects on the plant
Excerpt: Myzus persicae (Green peach aphid), systemic test: Roots of pea seedlings, infested with an aphid population of mixed ages, are placed directly in the test solutions at an application rate of 12.5 ppm. 6 days after introduction, samples are checked for mortality and special effects on the plant. The following compounds gave at least 80% control of Myzus persicae: A3, B2, B3, B5, B6, B7, B8, B11, B12, C1, C2, C3,C4, C5, C6, C7, D1, E1, E2, G1, G3, G5, G6, H1, H5, H6, H9, H10, H11, H12, H13, H14, H18, H19, H20, H24, H25, and H26.

CCN1OC[C@@H](NC(=O)c2ccc(C3=NOC(c4cccc(OC(F)(F)F)c4)(C(F)(F)F)C3)cc2C)C1=O (stereo partly drawn) [Compound H1]
at least 80%: control of Spodoptera littoralis (Spodoptera littoralis) | control of Heliothis virescens (Heliothis virescens) | control of Myzus persicae (Myzus persicae)

CCN1OC[C@@H](NC(=O)c2ccc(C3=NOC(c4cc(Cl)cc(Br)c4)(C(F)(F)F)C3)cc2C)C1=O (stereo partly drawn) [Compound H12]
at least 80%: control of Spodoptera littoralis (Spodoptera littoralis) | control of Heliothis virescens (Heliothis virescens) | control of Myzus persicae (Myzus persicae)

CCN1OC[C@@H](NC(=O)c2ccc(C3=NOC(c4cc(Cl)cc(Cl)c4)(C(F)(F)Cl)C3)cc2C)C1=O (stereo partly drawn) [Compound H13]
at least 80%: control of Spodoptera littoralis (Spodoptera littoralis) | control of Heliothis virescens (Heliothis virescens) | control of Myzus persicae (Myzus persicae)

Cc1cc(C2=NOC(c3cc(Cl)cc(Br)c3)(C(F)(F)F)C2)ccc1C(=O)N[C@@H]1CON(CC(F)(F)F)C1=O (stereo partly drawn) [Compound H25]
at least 80%: control of Spodoptera littoralis (Spodoptera littoralis) | control of Heliothis virescens (Heliothis virescens) | control of Myzus persicae (Myzus persicae)

Cc1cc(C2=NOC(c3cc(Cl)cc(Cl)c3)(C(F)(F)Cl)C2)ccc1C(=O)N[C@@H]1CON(CC(F)(F)F)C1=O (stereo partly drawn) [Compound H26]
at least 80%: control of Spodoptera littoralis (Spodoptera littoralis) | control of Heliothis virescens (Heliothis virescens) | control of Myzus persicae (Myzus persicae)
